Structures were worked out from names or drawings and are uncertain.
Biological target: factor VIIa/tissue factor complex (Homo sapiens, UniProt P08709)
Test: inhibition of the amidolytic activity of factor VIIa/tissue factor complex (chromogenic peptide substrate)
Settings: 26 nM tissue factor, 9 nM soluble factor VIIa, 8 mM calcium chloride, substrate Chromozym-tPA, pH 7.5, room temperature
Experimental: The measurements were carried out on microtitre plates at room temperature. To this end, 100 μl of a solution of 26 nM of tissue factor, 9 nM of soluble factor VIIa and 8 mM of calcium chloride were added to 25 μl of a solution of the inhibitor in a buffer [pH 7.5, 100 mM, comprising 0.14M NaCl, 0.1M N-(2-hydroxyethyl)piperazine-N′-(2-ethanesulphonic acid) (HEPES), 0.5 mg/l of fatty-acid-free BSA (bovine serum albumin) and 0.05% NaN3] in each well of the plate. After an incubation time of 15 minutes the reaction was started by the addition of 50 μl of chromogenic substrate Chromozym-tPA (3.5 mM, MeSO2-D-Phe-Gly-Arg-paranitroanilide) and the hydrolysis of the substrate was followed spectrophotometrically on a kinetic microtitre plate reader over 10 minutes. Using the plot of the inhibition curves, the Ki values were determined according to the method described in Biochem. J. 55, 1953, 170–171. The results will be evident from the following Table (Ki in μM/l): […]

Protein sequences, listed by entry. Tags and fused reporters are not part of them. Residues count along the entry.
UniProt P08709, 213-466 limits assumed: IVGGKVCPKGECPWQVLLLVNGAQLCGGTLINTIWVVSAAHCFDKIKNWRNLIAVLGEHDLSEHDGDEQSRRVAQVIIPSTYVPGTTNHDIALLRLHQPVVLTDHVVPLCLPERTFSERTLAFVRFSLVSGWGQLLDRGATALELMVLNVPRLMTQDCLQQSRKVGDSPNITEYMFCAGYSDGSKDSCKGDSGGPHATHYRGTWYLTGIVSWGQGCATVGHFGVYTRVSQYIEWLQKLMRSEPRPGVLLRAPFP
UniProt P08709, 61-212 partner limits assumed: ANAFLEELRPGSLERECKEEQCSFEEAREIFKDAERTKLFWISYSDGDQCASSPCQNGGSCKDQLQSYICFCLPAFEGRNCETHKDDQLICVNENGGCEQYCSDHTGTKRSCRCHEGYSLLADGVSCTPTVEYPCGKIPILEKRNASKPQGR
UniProt P13726, 33-295 partner limits assumed: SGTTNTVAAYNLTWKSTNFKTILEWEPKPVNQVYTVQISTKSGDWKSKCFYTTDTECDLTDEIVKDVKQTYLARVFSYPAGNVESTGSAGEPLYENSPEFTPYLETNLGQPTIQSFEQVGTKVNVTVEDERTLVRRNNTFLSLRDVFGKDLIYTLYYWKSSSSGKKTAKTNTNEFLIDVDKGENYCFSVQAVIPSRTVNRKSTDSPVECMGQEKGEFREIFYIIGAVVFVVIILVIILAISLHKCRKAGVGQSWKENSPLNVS

**Q.** Which Ki does the source give for COc1cc(OCCO)c(C(Nc2ccc(C(=N)N)cc2)C(=O)O)cc1OC (stereo not shown) here?
**A.** 114 nM
